Source: paper PMC5379670
These are yes or no findings as the source states them, for the method shown. In cells and extracts the contact can be indirect. Some results given as binding are weak or reduced against the parent protein; the word gives no strength. For part of these data: Where a sequence is shown, tags or fusion partners need not be part of it. Values belong to the binder of their own block, whether it stands above or below them.

Sequences of proteins named here, by UniProt entry; tags and fusion partners are left off.
UniProt P20152: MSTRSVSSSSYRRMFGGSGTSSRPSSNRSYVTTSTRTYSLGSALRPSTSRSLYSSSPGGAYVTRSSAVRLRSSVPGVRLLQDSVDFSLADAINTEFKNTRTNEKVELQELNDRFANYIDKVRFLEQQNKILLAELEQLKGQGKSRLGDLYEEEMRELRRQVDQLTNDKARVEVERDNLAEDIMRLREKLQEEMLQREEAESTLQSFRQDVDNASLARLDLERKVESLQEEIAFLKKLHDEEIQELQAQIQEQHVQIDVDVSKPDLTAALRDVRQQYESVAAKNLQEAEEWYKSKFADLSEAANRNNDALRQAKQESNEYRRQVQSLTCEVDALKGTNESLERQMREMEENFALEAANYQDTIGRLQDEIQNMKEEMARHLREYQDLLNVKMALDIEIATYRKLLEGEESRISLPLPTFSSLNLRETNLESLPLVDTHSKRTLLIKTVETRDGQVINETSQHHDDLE

Columns and labels:
[1] = molecular target: endogenous VIME (Vimentin) (mouse (endogenous in P19)) (UniProt P20152); experiment: co-IP; endogenous proteins; P19 cells in 1 μM RA for 4 days, then N2 serum-free medium for another 2, 4, 6 days (cells in RA medium for 0, 2, 4 days as control); by the legend immunoprecipitated with anti-FSCN1 or anti-VIME and blotted with anti-MAGE-G1
[2] = molecular target: GST-VIME (mouse) (UniProt P20152); experiment: pull-down; GST fusion proteins from E. coli BL21 held on Glutathione-Sepharose 4B beads, washed, incubated with Flag-MAGE-G1 expressed in HEK293T for 4 h at 4 °C; immunoblotting; only the target purified
[3] = molecular target: GFP-VIME (mouse) (UniProt P20152); experiment: co-IP; COS-7 cells transiently co-transfected with Flag-Mage-g1 and a GFP fusion; lysates in IP Lysis Buffer; immunoprecipitation with anti-Flag or, reciprocally, anti-GFP; immunoblotting

binding [1]: binds
B1: endogenous MAGE-G1 (protein, UniProt Q9CPR8 1-279)
chain: MLQKPRGRGRPSTQADPERDWGGAGEEGPSTSRAAGGSSQGSRASLSAPTVGPRTQKQLELKVAELVQFLLIKDQKKIPIKRTDILKHVVGDYRDVYPNLLKLAAERLQYVFGYKLVELEPKSHSYILINMLEPVEADAEMRGDQGTPISGLLMIVLGLIFMKGNTITETEVWDFLRRLGVYPTKKHLIFGDPKKLITEDFVRQRYLEYRRIPHTDPVDYELQWGPRTNLETSKMKVLKFVAKVHNQDPKDWPTQYCEALADEESRARPATASAPATSS

binding [2]: binds
B2: Flag-MAGE-G1 expressed in HEK293T (protein, UniProt Q9CPR8 1-279)
chain: B1 chain

binding [3]: binds
B3: Flag-MAGE-G1 transiently expressed in COS-7 cells (protein, UniProt Q9CPR8 1-279)
chain: B1 chain
